Measurements reported in the supplement of paper PMC10849652.
Some of the results follow.

Chains of the proteins cited; added tags and fusions are not shown. Lines headed by an entry give the natural chain unless they say otherwise; changes in a name come on top.
UniProt Q9H6K4: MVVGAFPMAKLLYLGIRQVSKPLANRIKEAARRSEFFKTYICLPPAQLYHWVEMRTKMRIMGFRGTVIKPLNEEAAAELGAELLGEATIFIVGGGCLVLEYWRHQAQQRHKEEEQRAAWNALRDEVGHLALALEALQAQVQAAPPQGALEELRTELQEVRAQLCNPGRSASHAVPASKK
UniProt Q9H4L5: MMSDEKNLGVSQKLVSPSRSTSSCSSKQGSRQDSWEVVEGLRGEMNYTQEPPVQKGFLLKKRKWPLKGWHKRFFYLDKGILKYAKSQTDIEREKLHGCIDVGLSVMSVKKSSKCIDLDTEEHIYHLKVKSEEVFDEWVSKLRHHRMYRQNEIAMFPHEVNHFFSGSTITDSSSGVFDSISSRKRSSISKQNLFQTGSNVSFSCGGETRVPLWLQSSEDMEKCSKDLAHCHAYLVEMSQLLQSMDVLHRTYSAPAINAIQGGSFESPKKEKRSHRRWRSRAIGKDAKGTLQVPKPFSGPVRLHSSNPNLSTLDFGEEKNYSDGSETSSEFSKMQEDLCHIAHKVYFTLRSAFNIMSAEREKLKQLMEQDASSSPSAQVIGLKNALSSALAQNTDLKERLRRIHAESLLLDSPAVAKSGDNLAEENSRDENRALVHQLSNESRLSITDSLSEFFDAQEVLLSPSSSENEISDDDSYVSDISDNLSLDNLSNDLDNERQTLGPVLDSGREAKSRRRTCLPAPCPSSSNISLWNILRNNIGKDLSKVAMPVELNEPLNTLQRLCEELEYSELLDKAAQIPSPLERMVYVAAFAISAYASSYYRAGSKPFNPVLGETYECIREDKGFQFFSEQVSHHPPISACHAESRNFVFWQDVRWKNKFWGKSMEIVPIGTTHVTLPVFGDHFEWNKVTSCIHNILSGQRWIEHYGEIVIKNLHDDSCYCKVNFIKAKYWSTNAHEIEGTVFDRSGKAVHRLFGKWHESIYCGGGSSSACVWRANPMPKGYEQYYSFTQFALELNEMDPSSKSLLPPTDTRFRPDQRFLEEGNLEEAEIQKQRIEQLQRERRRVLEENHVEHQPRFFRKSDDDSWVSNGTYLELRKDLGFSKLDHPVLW
UniProt Q8WV74: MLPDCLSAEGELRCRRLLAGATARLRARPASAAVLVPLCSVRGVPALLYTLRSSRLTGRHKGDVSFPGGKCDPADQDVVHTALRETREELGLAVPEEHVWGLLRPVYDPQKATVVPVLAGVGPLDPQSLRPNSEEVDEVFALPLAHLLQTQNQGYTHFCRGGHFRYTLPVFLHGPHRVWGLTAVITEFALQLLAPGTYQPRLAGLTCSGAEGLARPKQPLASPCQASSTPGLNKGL
UniProt Q13416: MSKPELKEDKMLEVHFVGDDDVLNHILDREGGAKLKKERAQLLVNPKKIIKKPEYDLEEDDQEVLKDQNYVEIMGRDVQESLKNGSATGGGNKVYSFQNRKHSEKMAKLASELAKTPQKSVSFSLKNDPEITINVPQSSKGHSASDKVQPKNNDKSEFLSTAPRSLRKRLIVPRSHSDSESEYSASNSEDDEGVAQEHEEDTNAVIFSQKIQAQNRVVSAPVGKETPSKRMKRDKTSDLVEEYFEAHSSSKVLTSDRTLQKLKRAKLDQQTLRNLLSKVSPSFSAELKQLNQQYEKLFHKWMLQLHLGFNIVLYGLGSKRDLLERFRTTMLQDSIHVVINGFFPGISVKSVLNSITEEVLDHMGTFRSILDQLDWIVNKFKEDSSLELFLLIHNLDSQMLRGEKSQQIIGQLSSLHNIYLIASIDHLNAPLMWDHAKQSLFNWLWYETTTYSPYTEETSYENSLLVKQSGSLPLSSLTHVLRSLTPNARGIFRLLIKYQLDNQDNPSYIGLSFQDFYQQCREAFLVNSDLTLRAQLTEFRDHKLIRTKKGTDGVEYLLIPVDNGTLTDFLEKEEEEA
UniProt P13674: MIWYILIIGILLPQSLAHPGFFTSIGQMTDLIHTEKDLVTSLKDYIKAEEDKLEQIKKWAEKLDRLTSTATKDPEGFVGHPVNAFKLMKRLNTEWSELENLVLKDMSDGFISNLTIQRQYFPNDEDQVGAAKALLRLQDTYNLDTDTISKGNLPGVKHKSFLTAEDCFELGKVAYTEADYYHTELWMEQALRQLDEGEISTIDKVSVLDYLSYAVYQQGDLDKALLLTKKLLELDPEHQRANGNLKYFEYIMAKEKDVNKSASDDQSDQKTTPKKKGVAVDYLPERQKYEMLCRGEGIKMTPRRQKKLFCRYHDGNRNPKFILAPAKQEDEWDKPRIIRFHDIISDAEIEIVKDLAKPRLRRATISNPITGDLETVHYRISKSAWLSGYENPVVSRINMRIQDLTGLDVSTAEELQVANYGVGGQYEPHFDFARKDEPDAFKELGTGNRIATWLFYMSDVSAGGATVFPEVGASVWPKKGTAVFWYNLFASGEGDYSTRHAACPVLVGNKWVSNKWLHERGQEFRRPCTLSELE
UniProt Q9Y5N6: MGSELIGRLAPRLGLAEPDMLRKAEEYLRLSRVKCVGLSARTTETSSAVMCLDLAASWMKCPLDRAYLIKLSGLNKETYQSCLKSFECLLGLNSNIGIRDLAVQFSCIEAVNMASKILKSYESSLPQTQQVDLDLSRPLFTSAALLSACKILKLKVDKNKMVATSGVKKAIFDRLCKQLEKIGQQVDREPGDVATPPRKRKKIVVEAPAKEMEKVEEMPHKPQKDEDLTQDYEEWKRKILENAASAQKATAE
UniProt P11926: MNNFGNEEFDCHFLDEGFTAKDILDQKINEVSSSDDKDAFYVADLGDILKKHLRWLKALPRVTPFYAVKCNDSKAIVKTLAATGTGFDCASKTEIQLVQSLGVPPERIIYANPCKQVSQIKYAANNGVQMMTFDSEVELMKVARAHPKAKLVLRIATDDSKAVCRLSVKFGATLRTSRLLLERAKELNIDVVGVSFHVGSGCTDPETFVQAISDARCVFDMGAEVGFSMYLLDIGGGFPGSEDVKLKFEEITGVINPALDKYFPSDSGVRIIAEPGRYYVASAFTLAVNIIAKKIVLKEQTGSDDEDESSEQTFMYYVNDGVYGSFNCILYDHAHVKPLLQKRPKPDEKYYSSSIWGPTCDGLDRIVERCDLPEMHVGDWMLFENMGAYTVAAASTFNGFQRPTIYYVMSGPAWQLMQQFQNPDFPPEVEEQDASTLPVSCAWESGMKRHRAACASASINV
UniProt Q969T7: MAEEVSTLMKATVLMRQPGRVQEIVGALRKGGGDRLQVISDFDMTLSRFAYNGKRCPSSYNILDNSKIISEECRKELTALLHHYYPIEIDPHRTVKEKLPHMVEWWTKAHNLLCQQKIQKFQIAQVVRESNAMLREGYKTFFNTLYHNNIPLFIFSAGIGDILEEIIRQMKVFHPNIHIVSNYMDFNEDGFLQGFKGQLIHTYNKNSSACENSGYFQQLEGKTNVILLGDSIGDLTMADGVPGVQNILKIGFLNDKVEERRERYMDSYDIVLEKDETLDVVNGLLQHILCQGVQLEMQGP
UniProt Q8WVJ2: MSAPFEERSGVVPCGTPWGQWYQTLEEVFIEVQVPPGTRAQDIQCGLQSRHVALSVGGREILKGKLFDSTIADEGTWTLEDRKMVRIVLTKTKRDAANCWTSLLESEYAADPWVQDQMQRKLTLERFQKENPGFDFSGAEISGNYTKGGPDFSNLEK
UniProt Q9BZF3: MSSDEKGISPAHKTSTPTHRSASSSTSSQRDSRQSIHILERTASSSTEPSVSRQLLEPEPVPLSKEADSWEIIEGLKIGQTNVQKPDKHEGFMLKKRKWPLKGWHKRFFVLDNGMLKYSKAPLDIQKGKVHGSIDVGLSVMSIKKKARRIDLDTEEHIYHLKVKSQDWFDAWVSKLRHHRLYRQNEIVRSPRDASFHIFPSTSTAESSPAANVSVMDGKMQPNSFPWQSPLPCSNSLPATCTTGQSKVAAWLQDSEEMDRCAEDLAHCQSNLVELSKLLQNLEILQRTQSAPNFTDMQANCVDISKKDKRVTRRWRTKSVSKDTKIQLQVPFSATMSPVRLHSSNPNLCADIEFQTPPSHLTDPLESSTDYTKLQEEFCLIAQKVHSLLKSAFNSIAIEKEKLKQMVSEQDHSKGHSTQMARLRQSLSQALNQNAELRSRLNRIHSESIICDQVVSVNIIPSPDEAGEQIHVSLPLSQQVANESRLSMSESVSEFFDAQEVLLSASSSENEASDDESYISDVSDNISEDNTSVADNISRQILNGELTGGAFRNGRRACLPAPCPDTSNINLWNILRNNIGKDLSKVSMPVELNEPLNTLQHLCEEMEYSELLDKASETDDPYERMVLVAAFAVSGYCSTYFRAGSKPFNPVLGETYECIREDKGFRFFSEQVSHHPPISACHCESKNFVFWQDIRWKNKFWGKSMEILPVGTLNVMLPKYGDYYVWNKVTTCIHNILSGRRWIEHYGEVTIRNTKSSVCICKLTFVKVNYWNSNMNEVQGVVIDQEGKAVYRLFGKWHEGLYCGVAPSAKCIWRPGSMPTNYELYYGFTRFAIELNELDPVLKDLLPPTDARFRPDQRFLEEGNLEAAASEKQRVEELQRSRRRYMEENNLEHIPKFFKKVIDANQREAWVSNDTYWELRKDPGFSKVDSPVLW
UniProt P53370: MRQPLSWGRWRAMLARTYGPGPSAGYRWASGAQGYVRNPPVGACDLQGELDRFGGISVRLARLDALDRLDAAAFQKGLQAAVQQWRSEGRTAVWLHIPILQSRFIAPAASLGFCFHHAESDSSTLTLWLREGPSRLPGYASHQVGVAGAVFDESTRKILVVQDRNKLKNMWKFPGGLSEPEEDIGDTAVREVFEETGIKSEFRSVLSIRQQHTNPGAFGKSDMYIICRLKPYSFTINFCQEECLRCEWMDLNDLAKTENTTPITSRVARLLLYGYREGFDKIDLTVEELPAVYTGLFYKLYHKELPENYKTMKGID
UniProt Q86UD1: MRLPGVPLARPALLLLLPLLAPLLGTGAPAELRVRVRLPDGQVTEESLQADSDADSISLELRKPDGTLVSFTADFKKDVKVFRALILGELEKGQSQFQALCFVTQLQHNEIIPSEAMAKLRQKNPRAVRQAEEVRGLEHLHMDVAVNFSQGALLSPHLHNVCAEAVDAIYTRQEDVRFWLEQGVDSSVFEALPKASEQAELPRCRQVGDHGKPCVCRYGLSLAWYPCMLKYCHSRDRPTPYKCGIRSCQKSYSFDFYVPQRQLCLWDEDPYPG
UniProt Q8IVL6: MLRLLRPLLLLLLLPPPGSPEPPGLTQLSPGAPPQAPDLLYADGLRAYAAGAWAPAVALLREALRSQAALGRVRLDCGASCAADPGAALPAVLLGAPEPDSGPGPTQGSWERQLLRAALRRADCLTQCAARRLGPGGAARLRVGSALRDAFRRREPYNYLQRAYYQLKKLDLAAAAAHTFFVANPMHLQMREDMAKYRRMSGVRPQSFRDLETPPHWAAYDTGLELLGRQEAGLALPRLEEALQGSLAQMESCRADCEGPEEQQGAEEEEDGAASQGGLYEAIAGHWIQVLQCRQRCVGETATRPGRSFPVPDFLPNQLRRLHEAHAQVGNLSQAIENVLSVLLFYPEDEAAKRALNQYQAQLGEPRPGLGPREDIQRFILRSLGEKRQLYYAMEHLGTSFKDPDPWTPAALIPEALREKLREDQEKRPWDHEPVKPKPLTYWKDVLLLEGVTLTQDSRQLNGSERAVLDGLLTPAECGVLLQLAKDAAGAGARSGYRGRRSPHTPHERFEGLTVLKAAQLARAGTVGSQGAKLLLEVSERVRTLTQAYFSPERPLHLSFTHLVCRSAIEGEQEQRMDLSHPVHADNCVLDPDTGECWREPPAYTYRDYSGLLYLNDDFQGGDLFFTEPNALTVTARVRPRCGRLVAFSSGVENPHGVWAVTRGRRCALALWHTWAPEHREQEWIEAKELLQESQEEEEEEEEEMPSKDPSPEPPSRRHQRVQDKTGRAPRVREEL
UniProt Q96D31, whole entry, looked up: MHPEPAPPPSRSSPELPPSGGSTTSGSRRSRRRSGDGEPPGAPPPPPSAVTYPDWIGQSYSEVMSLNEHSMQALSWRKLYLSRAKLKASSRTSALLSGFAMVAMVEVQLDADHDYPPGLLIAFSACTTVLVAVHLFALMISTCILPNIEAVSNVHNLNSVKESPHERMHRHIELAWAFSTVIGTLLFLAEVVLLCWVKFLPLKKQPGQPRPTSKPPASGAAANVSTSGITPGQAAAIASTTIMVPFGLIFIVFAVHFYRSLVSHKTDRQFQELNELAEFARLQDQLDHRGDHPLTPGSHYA
UniProt Q9BRQ3: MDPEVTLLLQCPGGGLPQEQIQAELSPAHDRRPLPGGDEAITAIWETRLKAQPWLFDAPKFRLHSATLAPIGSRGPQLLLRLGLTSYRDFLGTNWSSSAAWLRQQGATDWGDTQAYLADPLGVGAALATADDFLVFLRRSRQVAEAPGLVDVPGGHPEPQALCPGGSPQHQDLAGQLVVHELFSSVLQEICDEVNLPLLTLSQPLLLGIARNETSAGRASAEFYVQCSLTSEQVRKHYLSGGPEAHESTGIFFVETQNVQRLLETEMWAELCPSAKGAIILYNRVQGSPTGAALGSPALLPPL
UniProt Q8N138: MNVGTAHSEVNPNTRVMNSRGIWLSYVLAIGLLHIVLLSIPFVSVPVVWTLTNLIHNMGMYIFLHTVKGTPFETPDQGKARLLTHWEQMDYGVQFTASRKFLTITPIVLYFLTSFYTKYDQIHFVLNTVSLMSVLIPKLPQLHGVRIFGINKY

Columns and labels:
Test in all cases: log2 fold change, soluble protein after heating vs DMSO (PISA); higher = thermal stabilisation; K562 cells, 10 uM, 30 min; active = over 0.2 and 3.5 SD of the protein, either way, in both replicates (recomputed)
[1] = compound: C#Cc1cccc(Nc2ncnc3cc(OCCOC)c(OCCOC)cc23)c1 [erlotinib]
How it was run: (§1)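 K562 cells at 2×10^6 cells/mL were exposed to 10 μM compound for 30 min, then aliquots were heated for 3 min across 48°C-58°C, pooled, and extracted in PBS containing 0.5% NP-40 at 4°C. The supernatant after 21,000xg for 90 min was taken as soluble protein and measured by TMTpro 16plex LC-MS/MS with channel sums equalised. Thermal stability is reported relative to control samples, with values from duplicates. Fold changes are given on a log2 scale.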

[2] = compound: C/C(=N\NC(=O)C1=CC(=CC=C1)S(=O)(=O)N2CCOCC2)/C3=C(C=CC(=C3)Cl)O
How it was run: as §1

[3] = compound: C1=CC(=CC=C1C2=NC3=C(N2)C=C(C=C3)C(=O)N)OC4=CC=C(C=C4)Cl
How it was run: as §1

[4] = compound: C1=CC2=C(C=CC(=C2)/C=C\3/C(=O)NC(=NCC4=CC=CS4)S3)N=C1
How it was run: as §1

[5] = compound: C1=CC=C(C=C1)C2=NC(=C(N2)C3=CC=NC=C3)C4=CC(=C(C=C4)Cl)O
How it was run: as §1

[6] = compound: C1=CC=C2C(=C1)C3=NNC4=CC=CC(=C43)C2=O
How it was run: as §1

[7] = compound: C1=CC(=C(C=C1Cl)C2=NC3=NC=CN=C3C(=N2)NC4=CC=NC=C4)F
How it was run: as §1

[8] = compound: C1CCN(C1)C(=O)NC2=CC=CC(=C2)NC3=NC=C(C(=N3)NCCC4=CN=CN4)Br
How it was run: as §1

[9] = compound: C1CN(CCC1(CC2=CC=C(C=C2)Cl)N)C3=NC=NC4=C3C=CN4
How it was run: as §1

[10] = compound: C1=CC2=NC=CN=C2C=C1/C=C/3\C(=O)NC(=O)S3
How it was run: as §1

Target: OPA3 isoform 2 (UniProt Q9H6K4)
- log2 fold change [1]: inactive: 0.015
- log2 fold change [2]: inactive: -0.04
- log2 fold change [3]: inactive: 0.005
- log2 fold change [4]: inactive: -0.013
- log2 fold change [5]: inactive: 0.121
- log2 fold change [6]: inactive: -0.113

Target: P2RY1 (UniProt P47900)
- log2 fold change [1]: inactive: -0.044
- log2 fold change [2]: inactive: 0
- log2 fold change [7]: inactive: -0.027
- log2 fold change [3]: inactive: 0.016
- log2 fold change [4]: inactive: 0.03
- log2 fold change [6]: inactive: 0.005

Target: OSBPL3 (UniProt Q9H4L5)
- log2 fold change [1]: active: 1.67
- log2 fold change [2]: inactive: 0.15
- log2 fold change [7]: inactive: -0.147
- log2 fold change [3]: inactive: 0.165
- log2 fold change [4]: inactive: 0.094
- log2 fold change [5]: inactive: 0.255
- log2 fold change [6]: inactive: 0.16
- log2 fold change [8]: inactive: -0.021
- log2 fold change [9]: inactive: -0.078

Target: OAS3 (UniProt Q9Y6K5)
- log2 fold change [10]: inactive: 0.139
- log2 fold change [5]: inactive: 0.226

Target: ORMDL1 (UniProt Q9P0S3)
- log2 fold change [1]: inactive: -0.099
- log2 fold change [7]: inactive: -0.22
- log2 fold change [3]: inactive: 0.076
- log2 fold change [8]: inactive: -0.019
- log2 fold change [9]: inactive: 0.063

Target: OSGEPL1 (UniProt Q9H4B0)
- log2 fold change [1]: inactive: 0.038
- log2 fold change [2]: inactive: -0.217
- log2 fold change [3]: inactive: 0.067
- log2 fold change [4]: inactive: 0.136
- log2 fold change [6]: inactive: 0.37

Target: NUDT8 (UniProt Q8WV74)
- log2 fold change [1]: inactive: 0.086
- log2 fold change [3]: inactive: -0.162
- log2 fold change [10]: inactive: -0.022
- log2 fold change [5]: inactive: 0.074
- log2 fold change [8]: inactive: -0.16
- log2 fold change [9]: inactive: -0.053

Target: ORC2 (UniProt Q13416)
- log2 fold change [1]: inactive: 0.051
- log2 fold change [7]: inactive: 0.039
- log2 fold change [3]: inactive: 0.017
- log2 fold change [10]: inactive: -0.055
- log2 fold change [5]: inactive: -0.048
- log2 fold change [8]: inactive: -0.055
- log2 fold change [9]: inactive: 0.105

Target: ODF2 (UniProt Q5BJF6)
- log2 fold change [7]: inactive: -0.044

Target: NXF1 (UniProt Q9UBU9)
- log2 fold change [2]: inactive: 0.169
- log2 fold change [4]: inactive: 0.079
- log2 fold change [5]: inactive: -0.043
- log2 fold change [6]: inactive: -0.035
- log2 fold change [8]: inactive: 0.086
- log2 fold change [9]: inactive: 0.048

Target: OVCA2 (UniProt Q8WZ82)
- log2 fold change [2]: inactive: 0.23
- log2 fold change [4]: inactive: 0.108
- log2 fold change [10]: inactive: 0.268
- log2 fold change [5]: inactive: -0.044
- log2 fold change [6]: inactive: -0.131

Target: NUDT7 (UniProt P0C024)
- log2 fold change [1]: inactive: -0.246
- log2 fold change [7]: inactive: -0.282
- log2 fold change [3]: inactive: 0.148
- log2 fold change [10]: inactive: -0.066
- log2 fold change [5]: inactive: -0.118
- log2 fold change [8]: inactive: 0.158
- log2 fold change [9]: inactive: -0.024

Target: P4HA1 isoform 2 (UniProt P13674)
- log2 fold change [2]: inactive: -0.115
- log2 fold change [7]: inactive: -0.069
- log2 fold change [4]: inactive: 0.061
- log2 fold change [10]: inactive: -0.035
- log2 fold change [5]: inactive: -0.104
- log2 fold change [6]: inactive: -0.112
- log2 fold change [8]: inactive: 0.024
- log2 fold change [9]: inactive: -0.052

Target: OGFOD3 isoform 2 (UniProt Q6PK18)
- log2 fold change [1]: inactive: -0.014
- log2 fold change [2]: inactive: -0.097
- log2 fold change [7]: inactive: 0.036
- log2 fold change [3]: inactive: 0.081
- log2 fold change [4]: inactive: 0.074
- log2 fold change [10]: inactive: -0.007
- log2 fold change [6]: inactive: -0.061
- log2 fold change [8]: inactive: 0.011
- log2 fold change [9]: inactive: 0.011

Target: ODF2L isoform 4 (UniProt Q9ULJ1)
- log2 fold change [10]: inactive: 0.021

Target: ORC6 (UniProt Q9Y5N6)
- log2 fold change [7]: inactive: 0.112
- log2 fold change [5]: inactive: 0.004

Target: ODC1 (UniProt P11926)
- log2 fold change [1]: inactive: 0.761
- log2 fold change [2]: inactive: -0.142
- log2 fold change [3]: inactive: -0.06
- log2 fold change [4]: inactive: -0.073
- log2 fold change [6]: inactive: -0.15

Target: NSMCE1 (UniProt Q8WV22)
- log2 fold change [1]: inactive: -0.116
- log2 fold change [2]: inactive: -0.028
- log2 fold change [7]: inactive: -0.023
- log2 fold change [3]: inactive: 0.032
- log2 fold change [4]: inactive: 0.139
- log2 fold change [5]: inactive: 0.019
- log2 fold change [6]: inactive: 0.028
- log2 fold change [8]: inactive: -0.009
- log2 fold change [9]: inactive: 0.145

Target: P4HA2 (UniProt O15460)
- log2 fold change [1]: inactive: -0.075
- log2 fold change [7]: active: -0.548
- log2 fold change [3]: inactive: 0.034
- log2 fold change [10]: inactive: -0.025
- log2 fold change [5]: inactive: -0.02
- log2 fold change [8]: inactive: -0.016
- log2 fold change [9]: inactive: -0.035

Target: NT5C3B (UniProt Q969T7)
- log2 fold change [1]: inactive: 0.04
- log2 fold change [2]: inactive: -0.029
- log2 fold change [3]: inactive: 0.019
- log2 fold change [4]: inactive: 0.084
- log2 fold change [10]: inactive: -0.042
- log2 fold change [5]: inactive: 0.049
- log2 fold change [6]: inactive: -0.002
- log2 fold change [8]: inactive: 0.033
- log2 fold change [9]: inactive: -0.064

Target: P3H1 (UniProt Q32P28)
- log2 fold change [1]: inactive: -0.075
- log2 fold change [2]: inactive: -0.087
- log2 fold change [7]: inactive: -0.092
- log2 fold change [3]: inactive: 0.017
- log2 fold change [4]: inactive: -0.005
- log2 fold change [10]: inactive: -0.021
- log2 fold change [5]: inactive: -0.016
- log2 fold change [6]: inactive: -0.025
- log2 fold change [8]: inactive: 0.01
- log2 fold change [9]: inactive: -0.053

Target: NUDT18 (UniProt Q6ZVK8)
- log2 fold change [1]: inactive: -0.021
- log2 fold change [2]: inactive: 0.045
- log2 fold change [7]: inactive: 0.103
- log2 fold change [3]: inactive: -0.016
- log2 fold change [4]: inactive: 0.019
- log2 fold change [5]: inactive: 0.036
- log2 fold change [6]: inactive: 0.015
- log2 fold change [8]: inactive: -0.069
- log2 fold change [9]: inactive: 0.052

Target: NUDT5 (UniProt C9JYY9)
- log2 fold change [1]: inactive: 0.041
- log2 fold change [2]: inactive: -0.396
- log2 fold change [7]: inactive: -0.347
- log2 fold change [3]: inactive: -0.211
- log2 fold change [4]: inactive: 0.208
- log2 fold change [10]: inactive: -0.033
- log2 fold change [6]: inactive: -0.112
- log2 fold change [8]: inactive: -0.256
- log2 fold change [9]: inactive: -0.101

Target: ORC5 (UniProt O43913)
- log2 fold change [1]: inactive: 0.089
- log2 fold change [2]: inactive: 0.177
- log2 fold change [3]: inactive: 0.046
- log2 fold change [4]: inactive: 0.05
- log2 fold change [10]: inactive: 0.062
- log2 fold change [5]: inactive: 0.031
- log2 fold change [6]: inactive: 0.01
- log2 fold change [8]: inactive: -0.13
- log2 fold change [9]: inactive: -0.026

Target: NUDCD2 (UniProt Q8WVJ2)
- log2 fold change [1]: inactive: 0.054
- log2 fold change [2]: inactive: -0.003
- log2 fold change [7]: inactive: 0.019
- log2 fold change [3]: inactive: -0.071
- log2 fold change [4]: inactive: 0.025
- log2 fold change [10]: inactive: 0.018
- log2 fold change [5]: inactive: -0.014
- log2 fold change [6]: inactive: 0.012
- log2 fold change [8]: inactive: -0.107
- log2 fold change [9]: inactive: -0.08

Target: OSBPL11 (UniProt Q9BXB4)
- log2 fold change [1]: inactive: -0.106
- log2 fold change [3]: inactive: -0.122

Target: PABPC1 (UniProt H0YAR2)
- log2 fold change [5]: inactive: -0.137

Target: OGFOD3 (UniProt Q6PK18)
- log2 fold change [10]: inactive: -0.226
- log2 fold change [5]: inactive: -0.048

Target: OSBPL6 isoform 5 (UniProt Q9BZF3)
- log2 fold change [1]: inactive: 0.693
- log2 fold change [2]: inactive: 0.817
- log2 fold change [7]: inactive: -1.35
- log2 fold change [3]: inactive: 0.503
- log2 fold change [4]: inactive: 0.058
- log2 fold change [5]: inactive: 0.308
- log2 fold change [6]: inactive: 0.313

Target: NUDT6 (UniProt P53370)
- log2 fold change [1]: inactive: -0.022
- log2 fold change [7]: inactive: 0.155
- log2 fold change [3]: inactive: 0.103
- log2 fold change [5]: inactive: -0.12
- log2 fold change [8]: inactive: 0.121
- log2 fold change [9]: inactive: 0.35

Target: OAF (UniProt Q86UD1)
- log2 fold change [1]: inactive: -0.115
- log2 fold change [3]: inactive: 0.05
- log2 fold change [5]: inactive: -0.174

Target: P3H3 (UniProt Q8IVL6)
- log2 fold change [7]: inactive: 0.014
- log2 fold change [8]: inactive: 0.199
- log2 fold change [9]: inactive: 0.106

Target: ORAI1 (UniProt Q96D31)
- log2 fold change [1]: inactive: 0.033
- log2 fold change [7]: inactive: 0.203
- log2 fold change [3]: inactive: 0.026
- log2 fold change [10]: inactive: -0.004
- log2 fold change [5]: inactive: 0.002
- log2 fold change [8]: inactive: -0.109
- log2 fold change [9]: inactive: -0.135

Target: OXR1 isoform 2 (UniProt Q8N573)
- log2 fold change [2]: inactive: 0.137
- log2 fold change [7]: inactive: -0.362
- log2 fold change [4]: inactive: -0.034
- log2 fold change [5]: inactive: -0.056
- log2 fold change [6]: inactive: 0.068
- log2 fold change [8]: inactive: 0.02
- log2 fold change [9]: inactive: -0.022

Target: OBSCN (UniProt A6NGQ3)
- log2 fold change [2]: inactive: -0.037
- log2 fold change [4]: inactive: 0.01
- log2 fold change [10]: inactive: 0.452
- log2 fold change [5]: inactive: -0.137
- log2 fold change [6]: inactive: 0.098
- log2 fold change [8]: inactive: 0.131
- log2 fold change [9]: inactive: 0.159

Target: NUDT22 (UniProt Q9BRQ3)
- log2 fold change [2]: inactive: -0.033
- log2 fold change [4]: inactive: -0.033
- log2 fold change [10]: inactive: -0.154
- log2 fold change [6]: inactive: 0.22

Target: ORMDL3 (UniProt Q8N138)
- log2 fold change [1]: inactive: -0.022
- log2 fold change [3]: inactive: 0.133

Target: NUF2 (UniProt Q9BZD4)
- log2 fold change [2]: inactive: 0.011
- log2 fold change [7]: inactive: -0.376
- log2 fold change [4]: inactive: 0.004
- log2 fold change [10]: inactive: -0.129
- log2 fold change [6]: inactive: -0.013

Target: ORC3 (UniProt Q9UBD5)
- log2 fold change [2]: inactive: 0.097
- log2 fold change [4]: inactive: -0.104
- log2 fold change [6]: inactive: 0.105
